Some of the results follow.
Tests used:
Experiment in all cases: log2 fold change, soluble protein after heating vs DMSO (PISA); higher = thermal stabilisation; K562 cells, 10 uM, 30 min; active = over 0.2 and 3.5 SD of the protein, either way, in both replicates (recomputed)
[1] = compound: C#Cc1cccc(Nc2ncnc3cc(OCCOC)c(OCCOC)cc23)c1 [erlotinib]
Procedure, shortened: (§1)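 Soluble protein was quantified by TMTpro 16plex LC-MS/MS after channel sums were equalised. It was obtained as the supernatant after 21,000xg for 90 min from pooled aliquots of K562 cells (2×10^6 cells/mL, 10 μM compound, 30 min) heated for 3 min across 48°C-58°C and extracted in PBS with 0.5% NP-40 at 4°C. Thermal stability values are relative to control samples and come from duplicates. They are given as log2 fold changes.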

The chains behind the UniProt entries cited, without tags or fusion partners. Where a name states a change or a piece, a line headed by the entry shows the natural chain unless it says otherwise.
UniProt P53618: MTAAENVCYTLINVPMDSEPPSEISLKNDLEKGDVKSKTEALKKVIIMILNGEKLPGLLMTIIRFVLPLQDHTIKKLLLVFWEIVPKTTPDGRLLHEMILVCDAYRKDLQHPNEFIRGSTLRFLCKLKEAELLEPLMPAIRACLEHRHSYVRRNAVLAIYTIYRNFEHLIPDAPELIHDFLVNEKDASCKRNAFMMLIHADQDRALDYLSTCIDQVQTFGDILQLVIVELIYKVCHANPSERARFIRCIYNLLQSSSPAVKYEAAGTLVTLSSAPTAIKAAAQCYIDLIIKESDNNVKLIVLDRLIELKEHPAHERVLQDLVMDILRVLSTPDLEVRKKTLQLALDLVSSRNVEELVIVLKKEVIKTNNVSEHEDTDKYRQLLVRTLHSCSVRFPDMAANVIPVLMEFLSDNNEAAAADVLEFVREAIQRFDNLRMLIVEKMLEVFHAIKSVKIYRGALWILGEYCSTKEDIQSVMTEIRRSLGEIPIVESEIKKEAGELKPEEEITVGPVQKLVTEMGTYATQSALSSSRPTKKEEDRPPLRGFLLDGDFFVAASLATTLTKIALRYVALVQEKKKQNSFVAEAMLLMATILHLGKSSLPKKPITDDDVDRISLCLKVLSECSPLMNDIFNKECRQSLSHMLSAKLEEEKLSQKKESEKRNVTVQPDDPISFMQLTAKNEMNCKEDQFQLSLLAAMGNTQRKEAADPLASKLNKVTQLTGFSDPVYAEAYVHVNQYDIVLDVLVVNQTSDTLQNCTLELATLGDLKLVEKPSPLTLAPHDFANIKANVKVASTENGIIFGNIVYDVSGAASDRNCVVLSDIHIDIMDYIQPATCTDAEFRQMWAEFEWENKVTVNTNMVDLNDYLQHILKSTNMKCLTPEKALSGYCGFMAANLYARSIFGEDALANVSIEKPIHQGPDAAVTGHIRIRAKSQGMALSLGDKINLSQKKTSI
UniProt Q9P021, whole entry, looked up: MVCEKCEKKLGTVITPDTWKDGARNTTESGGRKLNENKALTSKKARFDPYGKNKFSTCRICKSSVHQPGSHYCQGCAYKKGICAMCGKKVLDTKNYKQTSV
UniProt O95825: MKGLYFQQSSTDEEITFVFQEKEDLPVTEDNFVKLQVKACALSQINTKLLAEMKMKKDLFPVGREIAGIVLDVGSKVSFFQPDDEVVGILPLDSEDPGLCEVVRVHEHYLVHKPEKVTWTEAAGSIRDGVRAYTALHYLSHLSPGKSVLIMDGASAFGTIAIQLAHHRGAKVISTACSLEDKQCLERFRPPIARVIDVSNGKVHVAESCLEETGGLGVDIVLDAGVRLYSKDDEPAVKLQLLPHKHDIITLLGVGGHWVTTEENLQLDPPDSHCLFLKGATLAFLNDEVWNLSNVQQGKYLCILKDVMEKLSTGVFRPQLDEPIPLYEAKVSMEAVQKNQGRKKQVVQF
UniProt Q9UKF6: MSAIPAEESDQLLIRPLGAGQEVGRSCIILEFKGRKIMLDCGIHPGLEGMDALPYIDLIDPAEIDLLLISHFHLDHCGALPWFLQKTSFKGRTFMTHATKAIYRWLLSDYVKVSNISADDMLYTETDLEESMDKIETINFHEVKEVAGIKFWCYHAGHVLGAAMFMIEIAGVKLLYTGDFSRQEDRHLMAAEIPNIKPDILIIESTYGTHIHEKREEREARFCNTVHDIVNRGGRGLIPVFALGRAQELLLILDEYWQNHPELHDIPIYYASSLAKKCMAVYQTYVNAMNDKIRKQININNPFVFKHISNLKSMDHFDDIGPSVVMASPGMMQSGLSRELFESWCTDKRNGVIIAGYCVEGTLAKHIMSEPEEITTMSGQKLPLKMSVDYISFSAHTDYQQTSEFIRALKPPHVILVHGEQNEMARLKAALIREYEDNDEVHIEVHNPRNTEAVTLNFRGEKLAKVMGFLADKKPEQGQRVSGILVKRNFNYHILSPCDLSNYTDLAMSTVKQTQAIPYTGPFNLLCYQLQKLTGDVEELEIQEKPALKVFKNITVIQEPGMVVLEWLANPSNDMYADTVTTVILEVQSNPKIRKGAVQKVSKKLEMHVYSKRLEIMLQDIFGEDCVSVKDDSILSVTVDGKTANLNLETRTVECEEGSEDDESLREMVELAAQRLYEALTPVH
UniProt P21964: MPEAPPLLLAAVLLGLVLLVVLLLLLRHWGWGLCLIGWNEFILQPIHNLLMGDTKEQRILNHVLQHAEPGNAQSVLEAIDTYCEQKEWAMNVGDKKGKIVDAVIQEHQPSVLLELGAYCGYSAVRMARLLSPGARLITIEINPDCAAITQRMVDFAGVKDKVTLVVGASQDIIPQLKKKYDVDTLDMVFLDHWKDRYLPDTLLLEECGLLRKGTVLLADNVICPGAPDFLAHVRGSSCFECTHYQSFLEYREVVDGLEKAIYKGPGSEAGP
UniProt P36551: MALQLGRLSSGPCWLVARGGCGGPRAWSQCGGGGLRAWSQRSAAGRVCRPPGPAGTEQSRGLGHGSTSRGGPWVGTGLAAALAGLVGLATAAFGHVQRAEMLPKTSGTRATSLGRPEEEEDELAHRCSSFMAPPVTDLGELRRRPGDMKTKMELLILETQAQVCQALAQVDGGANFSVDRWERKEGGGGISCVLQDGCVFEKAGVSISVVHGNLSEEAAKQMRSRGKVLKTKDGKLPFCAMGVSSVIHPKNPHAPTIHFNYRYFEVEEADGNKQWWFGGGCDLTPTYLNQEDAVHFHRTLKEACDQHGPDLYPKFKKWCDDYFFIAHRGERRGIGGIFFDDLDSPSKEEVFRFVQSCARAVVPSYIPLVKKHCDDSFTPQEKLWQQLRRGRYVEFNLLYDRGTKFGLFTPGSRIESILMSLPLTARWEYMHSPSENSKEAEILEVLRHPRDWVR
UniProt Q9GZQ3, whole entry, looked up: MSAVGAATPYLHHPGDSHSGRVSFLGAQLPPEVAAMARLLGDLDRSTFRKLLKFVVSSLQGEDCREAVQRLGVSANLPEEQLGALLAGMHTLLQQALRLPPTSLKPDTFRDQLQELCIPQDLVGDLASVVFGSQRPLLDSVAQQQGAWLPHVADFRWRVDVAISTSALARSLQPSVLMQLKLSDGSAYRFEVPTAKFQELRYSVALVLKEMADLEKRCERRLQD
UniProt Q9Y646: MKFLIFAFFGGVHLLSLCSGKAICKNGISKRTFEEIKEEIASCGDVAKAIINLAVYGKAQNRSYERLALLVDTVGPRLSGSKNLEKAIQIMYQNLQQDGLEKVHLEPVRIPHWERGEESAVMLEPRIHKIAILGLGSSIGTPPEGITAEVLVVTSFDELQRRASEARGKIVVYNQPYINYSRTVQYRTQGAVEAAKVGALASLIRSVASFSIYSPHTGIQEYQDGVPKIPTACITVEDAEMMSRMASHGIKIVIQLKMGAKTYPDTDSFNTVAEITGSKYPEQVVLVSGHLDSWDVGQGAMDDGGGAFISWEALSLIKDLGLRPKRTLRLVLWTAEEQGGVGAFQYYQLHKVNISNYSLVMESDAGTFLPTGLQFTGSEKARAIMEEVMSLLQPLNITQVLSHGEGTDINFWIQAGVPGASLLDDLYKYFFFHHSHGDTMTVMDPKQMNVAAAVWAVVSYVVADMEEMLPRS
UniProt O14810: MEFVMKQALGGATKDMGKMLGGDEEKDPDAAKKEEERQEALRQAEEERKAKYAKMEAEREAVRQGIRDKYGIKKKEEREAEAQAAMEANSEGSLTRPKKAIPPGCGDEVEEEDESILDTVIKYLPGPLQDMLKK
UniProt P15954, whole entry, looked up: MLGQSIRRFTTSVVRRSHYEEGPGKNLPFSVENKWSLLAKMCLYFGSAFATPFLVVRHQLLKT
UniProt Q9Y678: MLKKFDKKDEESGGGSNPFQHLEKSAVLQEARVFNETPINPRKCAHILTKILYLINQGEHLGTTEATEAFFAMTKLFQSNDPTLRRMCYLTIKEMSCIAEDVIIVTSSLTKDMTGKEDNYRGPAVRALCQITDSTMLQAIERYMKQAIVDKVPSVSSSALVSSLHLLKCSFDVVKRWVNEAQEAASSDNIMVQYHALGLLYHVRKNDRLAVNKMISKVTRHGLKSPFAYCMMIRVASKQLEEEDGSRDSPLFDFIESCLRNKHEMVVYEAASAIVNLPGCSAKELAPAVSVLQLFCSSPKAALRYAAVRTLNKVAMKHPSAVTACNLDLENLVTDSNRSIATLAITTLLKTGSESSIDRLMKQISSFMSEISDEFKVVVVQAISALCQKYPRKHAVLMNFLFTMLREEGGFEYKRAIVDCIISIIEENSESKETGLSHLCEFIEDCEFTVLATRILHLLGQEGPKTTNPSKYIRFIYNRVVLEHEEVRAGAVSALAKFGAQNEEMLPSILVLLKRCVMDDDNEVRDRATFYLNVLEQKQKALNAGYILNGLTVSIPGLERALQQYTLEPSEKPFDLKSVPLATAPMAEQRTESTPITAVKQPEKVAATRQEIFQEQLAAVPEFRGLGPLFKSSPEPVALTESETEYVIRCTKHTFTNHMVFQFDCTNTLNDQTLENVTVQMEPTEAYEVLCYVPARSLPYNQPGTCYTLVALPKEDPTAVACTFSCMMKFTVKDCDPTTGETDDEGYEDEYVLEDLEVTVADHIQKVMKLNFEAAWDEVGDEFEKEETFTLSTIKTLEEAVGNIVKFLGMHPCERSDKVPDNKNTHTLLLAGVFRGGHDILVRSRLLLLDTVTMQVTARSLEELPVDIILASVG
UniProt Q7KZN9: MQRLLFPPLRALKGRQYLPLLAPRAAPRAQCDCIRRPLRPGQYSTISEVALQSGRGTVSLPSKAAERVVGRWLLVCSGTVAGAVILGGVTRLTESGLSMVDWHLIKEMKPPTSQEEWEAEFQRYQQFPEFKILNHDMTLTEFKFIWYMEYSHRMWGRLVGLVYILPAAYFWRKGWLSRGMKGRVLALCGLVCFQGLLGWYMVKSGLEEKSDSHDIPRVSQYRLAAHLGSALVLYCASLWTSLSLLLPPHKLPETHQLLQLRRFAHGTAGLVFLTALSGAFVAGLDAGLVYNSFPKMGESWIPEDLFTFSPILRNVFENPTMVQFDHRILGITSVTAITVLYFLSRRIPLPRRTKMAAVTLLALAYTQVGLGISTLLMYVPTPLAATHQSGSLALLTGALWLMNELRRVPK
UniProt O75629: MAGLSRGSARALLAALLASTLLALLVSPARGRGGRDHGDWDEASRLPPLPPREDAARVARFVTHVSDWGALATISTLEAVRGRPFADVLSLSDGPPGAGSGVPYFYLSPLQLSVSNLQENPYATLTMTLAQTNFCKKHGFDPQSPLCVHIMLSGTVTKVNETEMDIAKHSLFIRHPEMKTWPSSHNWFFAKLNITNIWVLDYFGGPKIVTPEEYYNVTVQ
UniProt P14854, whole entry, looked up: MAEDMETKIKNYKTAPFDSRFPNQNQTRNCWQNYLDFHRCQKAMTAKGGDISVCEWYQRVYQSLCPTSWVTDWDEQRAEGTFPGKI
UniProt Q6UUV9: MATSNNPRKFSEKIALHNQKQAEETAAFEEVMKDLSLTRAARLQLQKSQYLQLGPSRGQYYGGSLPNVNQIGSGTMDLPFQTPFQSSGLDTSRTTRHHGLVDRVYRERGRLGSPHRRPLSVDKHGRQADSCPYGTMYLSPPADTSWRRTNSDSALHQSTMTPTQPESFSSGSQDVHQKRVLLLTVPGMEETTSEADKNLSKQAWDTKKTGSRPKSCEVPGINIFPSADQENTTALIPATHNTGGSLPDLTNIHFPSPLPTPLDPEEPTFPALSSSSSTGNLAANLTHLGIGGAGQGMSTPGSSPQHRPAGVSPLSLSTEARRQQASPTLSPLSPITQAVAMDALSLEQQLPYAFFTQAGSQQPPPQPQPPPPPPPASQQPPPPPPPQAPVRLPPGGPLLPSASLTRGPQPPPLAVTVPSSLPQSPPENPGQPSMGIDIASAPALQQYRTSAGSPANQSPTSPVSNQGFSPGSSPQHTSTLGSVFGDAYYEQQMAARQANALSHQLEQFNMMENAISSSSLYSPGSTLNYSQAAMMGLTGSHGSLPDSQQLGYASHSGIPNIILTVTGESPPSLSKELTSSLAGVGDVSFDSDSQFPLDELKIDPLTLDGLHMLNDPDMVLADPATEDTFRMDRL
UniProt Q86VU5: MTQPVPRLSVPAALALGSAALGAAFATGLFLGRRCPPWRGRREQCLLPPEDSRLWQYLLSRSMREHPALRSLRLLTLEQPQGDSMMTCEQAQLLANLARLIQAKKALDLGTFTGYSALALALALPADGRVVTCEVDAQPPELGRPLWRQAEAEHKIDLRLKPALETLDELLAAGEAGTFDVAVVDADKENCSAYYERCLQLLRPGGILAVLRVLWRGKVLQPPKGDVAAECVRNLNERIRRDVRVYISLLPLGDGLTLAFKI
UniProt P68400, whole entry, looked up: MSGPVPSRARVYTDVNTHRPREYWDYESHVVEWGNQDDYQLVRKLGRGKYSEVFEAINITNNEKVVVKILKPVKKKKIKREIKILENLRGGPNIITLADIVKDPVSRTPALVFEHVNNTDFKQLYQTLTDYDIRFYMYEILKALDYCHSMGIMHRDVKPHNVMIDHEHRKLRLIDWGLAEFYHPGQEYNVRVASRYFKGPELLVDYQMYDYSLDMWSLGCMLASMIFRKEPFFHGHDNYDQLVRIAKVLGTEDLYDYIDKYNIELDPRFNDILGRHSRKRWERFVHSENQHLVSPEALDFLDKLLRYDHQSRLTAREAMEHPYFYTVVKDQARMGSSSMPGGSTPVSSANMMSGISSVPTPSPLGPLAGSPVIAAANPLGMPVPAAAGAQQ

[2] = compound: C/C(=N\NC(=O)C1=CC(=CC=C1)S(=O)(=O)N2CCOCC2)/C3=C(C=CC(=C3)Cl)O
Procedure, shortened: as §1

[3] = compound: C1=CC(=C(C=C1Cl)C2=NC3=NC=CN=C3C(=N2)NC4=CC=NC=C4)F
Procedure, shortened: as §1

[4] = compound: C1=CC(=CC=C1C2=NC3=C(N2)C=C(C=C3)C(=O)N)OC4=CC=C(C=C4)Cl
Procedure, shortened: as §1

[5] = compound: C1=CC2=C(C=CC(=C2)/C=C\3/C(=O)NC(=NCC4=CC=CS4)S3)N=C1
Procedure, shortened: as §1

[6] = compound: C1=CC2=NC=CN=C2C=C1/C=C/3\C(=O)NC(=O)S3
Procedure, shortened: as §1

[7] = compound: C1=CC=C(C=C1)C2=NC(=C(N2)C3=CC=NC=C3)C4=CC(=C(C=C4)Cl)O
Procedure, shortened: as §1

[8] = compound: C1=CC=C2C(=C1)C3=NNC4=CC=CC(=C43)C2=O
Procedure, shortened: as §1

[9] = compound: C1CCN(C1)C(=O)NC2=CC=CC(=C2)NC3=NC=C(C(=N3)NCCC4=CN=CN4)Br
Procedure, shortened: as §1

[10] = compound: C1CN(CCC1(CC2=CC=C(C=C2)Cl)N)C3=NC=NC4=C3C=CN4
Procedure, shortened: as §1

Measured: log2 fold change

COMMD2 (UniProt Q86X83)
inactive: [1] 0.114 | [2] 0.049 | [3] -0.053 | [4] 0.085 | [5] 0.091 | [6] -0.02 | [7] -0.017 | [8] 0.058 | [9] 0.071 | [10] -0.119

CRTAP (UniProt O75718)
inactive: [1] -0.083 | [2] -0.093 | [3] -0.084 | [4] 0.015 | [5] -0.037 | [6] -0.007 | [7] 0.017 | [8] -0.013 | [9] -0.024 | [10] -0.086

COPB1 (UniProt P53618)
inactive: [1] -0.043 | [2] 0.041 | [3] 0.052 | [4] 0.019 | [5] -0.012 | [6] 0.039 | [7] 0.025 | [8] 0.018 | [9] -0.011 | [10] 0.03

CRIPT (UniProt Q9P021)
inactive: [1] -0.003 | [2] 0.007 | [3] -0.028 | [4] 0.038 | [5] 0.007 | [6] 0.02 | [7] -0.065 | [8] -0.069 | [9] -0.026 | [10] -0.029

COPRS (UniProt Q9NQ92)
inactive: [1] 0.041 | [2] -0.006 | [3] 0.108 | [4] 0.045 | [5] 0.016 | [6] 0.067 | [7] -0.129 | [8] -0.003 | [9] 0.012 | [10] 0.045

CRYZL1 (UniProt O95825)
inactive: [1] 0.009 | [2] 0.02 | [3] 0.044 | [4] 0.015 | [5] -0.022 | [6] 0.012 | [7] 0.004 | [8] -0.018 | [9] -0.003 | [10] 0.029

CPSF3 (UniProt Q9UKF6)
inactive: [1] 0.006 | [2] 0.104 | [3] 0.028 | [4] 0 | [5] -0.003 | [6] 0.048 | [7] 0 | [8] -0.022 | [9] -0.005 | [10] -0.011

COMT (UniProt P21964)
inactive: [1] -0.026 | [2] 0.076 | [3] -0.015 | [4] -0.08 | [5] 0.023 | [6] 0.012 | [7] 0.026 | [8] 0.029 | [9] 0.031 | [10] -0.059

CPOX (UniProt P36551)
inactive: [1] 0.031 | [2] 0.023 | [3] 0.033 | [4] -0.007 | [5] 0.002 | [6] 0.016 | [7] 0.017 | [8] -0.023 | [9] -0.008 | [10] 0.041

CRBN (UniProt Q96SW2)
inactive: [1] 0.043 | [2] 0.026 | [3] 0.028 | [4] 0.011 | [5] -0.021 | [6] 0.03 | [7] -0.036 | [8] 0 | [9] -0.036 | [10] 0.037

COMMD5 (UniProt Q9GZQ3)
inactive: [1] -0.032 | [2] 0.028 | [3] 0.043 | [4] -0.003 | [5] 0.044 | [6] 0.081 | [7] -0.002 | [8] 0.031 | [9] -0.065 | [10] -0.005

Reprinted at random: 2 entries already listed.
CPOX (UniProt P36551)
inactive: [1] 0.031 | [2] 0.023 | [3] 0.033 | [4] -0.007 | [5] 0.002 | [6] 0.016 | [7] 0.017 | [8] -0.023 | [9] -0.008 | [10] 0.041

COMT (UniProt P21964)
inactive: [1] -0.026 | [2] 0.076 | [3] -0.015 | [4] -0.08 | [5] 0.023 | [6] 0.012 | [7] 0.026 | [8] 0.029 | [9] 0.031 | [10] -0.059

Continuation:

CPQ (UniProt Q9Y646)
inactive: [1] 0.013 | [2] 0.002 | [3] 0.051 | [4] 0 | [5] 0.05 | [6] 0.004 | [7] 0.07 | [8] 0 | [9] -0.027 | [10] 0.125

COPS5 (UniProt Q92905)
inactive: [1] -0.005 | [2] 0.04 | [3] 0.045 | [4] 0.011 | [5] -0.026 | [6] 0.032 | [7] 0.052 | [8] 0.002 | [9] -0.007 | [10] 0.031

CSDE1 isoform 4 (UniProt O75534)
inactive: [1] 0.021 | [2] 0.087 | [3] -0.244 | [4] -0.034 | [5] 0.038 | [6] -0.009 | [7] -0.055 | [8] 0.023 | [9] -0.015 | [10] -0.168

CPLX1 (UniProt O14810)
inactive: [1] -0.256 | [2] 0.095 | [3] 0.021 | [4] -0.148 | [5] 0.131 | [6] 0.117 | [7] 0.014 | [8] -0.235

COX7C (UniProt P15954)
inactive: [1] -0.006 | [2] 0.134 | [3] 0.209 | [4] 0.154 | [5] -0.174 | [6] 0.073 | [7] 0.08 | [8] 0.27 | [9] -0.003 | [10] 0.047

CRPPA (UniProt A4D126)
inactive: [1] 0.004 | [2] 0.02 | [3] 0.044 | [4] 0.008 | [5] 0.012 | [6] 0.039 | [7] -0.023 | [8] -0.003 | [9] -0.071 | [10] 0.03

CPNE1 (UniProt Q99829)
inactive: [1] 0.056 | [2] 0.019 | [3] 0.054 | [4] 0.008 | [5] 0.02 | [6] 0 | [7] -0.026 | [8] 0.041 | [9] 0.058 | [10] -0.009

COPG2 (UniProt Q9UBF2)
inactive: [1] -0.017 | [2] 0.013 | [3] -0.026 | [4] -0.007 | [5] 0.036 | [6] -0.022 | [7] 0.015 | [8] 0.002 | [9] -0.039 | [10] 0.017

COPG1 (UniProt Q9Y678)
inactive: [1] -0.042 | [2] 0.047 | [3] 0.018 | [4] 0 | [5] 0 | [6] 0.017 | [7] 0.022 | [8] 0.03 | [9] 0.002 | [10] 0.006

COX15 (UniProt Q7KZN9)
inactive: [1] -0.01 | [2] -0.008 | [3] 0.067 | [4] -0.008 | [5] 0.03 | [6] 0.145 | [7] -0.009 | [8] -0.019 | [9] 0.01 | [10] 0.057

CREG1 (UniProt O75629)
inactive: [1] -0.028 | [2] 0.005 | [3] -0.007 | [4] 0.057 | [5] 0.03 | [6] -0.019 | [7] 0.033 | [8] -0.056 | [9] -0.053 | [10] 0.051

COX6B1 (UniProt P14854)
inactive: [1] 0.027 | [2] 0.011 | [3] 0.247 | [4] -0.045 | [5] 0.118 | [6] 0.048 | [7] 0 | [8] -0.037 | [9] -0.003 | [10] -0.019

CRTC1 isoform 2 (UniProt Q6UUV9)
inactive: [1] 0.007 | [2] 0.07 | [3] -0.228 | [4] 0.068 | [5] 0.185 | [6] -0.052 | [7] -0.229 | [8] -0.051 | [9] -0.053 | [10] 0.021

COMTD1 (UniProt Q86VU5)
inactive: [1] 0.016 | [2] 0.041 | [3] 0.014 | [4] 0.029 | [5] 0.053 | [6] 0.028 | [7] 0.038 | [8] -0.052 | [9] 0.038 | [10] 0.019

CPSF2 (UniProt Q9P2I0)
inactive: [1] -0.01 | [2] 0.035 | [3] -0.052 | [4] 0.046 | [5] -0.004 | [6] 0.076 | [7] -0.125 | [8] 0.009 | [9] -0.018 | [10] -0.034

COPS4 (UniProt Q9BT78)
inactive: [1] -0.002 | [2] 0.061 | [3] 0.13 | [4] -0.004 | [5] 0.036 | [6] -0.006 | [7] 0.054 | [8] 0.024 | [9] -0.009 | [10] -0.002

CSNK2A1 (UniProt P68400)
active: [6] 0.296
inactive: [1] -0.03 | [2] -0.011 | [3] 0.006 | [4] 0.024 | [5] 0.139 | [7] -0.041 | [8] 0.094 | [9] -0.003 | [10] -0.013

CPS1 isoform 3 (UniProt P31327)
inactive: [1] -0.002 | [2] 0.283 | [3] -0.021 | [4] 0.072 | [5] -0.049 | [6] -0.137 | [7] 0.02 | [8] -0.213 | [9] -0.072 | [10] 0.036

CREB1 (UniProt P16220)
inactive: [1] -0.082 | [2] 0.025 | [3] -0.033 | [4] 0.002 | [5] 0.037 | [6] -0.028 | [7] -0.039 | [8] 0.005 | [9] 0.011 | [10] -0.137

— the supplement of paper PMC10849652
